From PubChem BioAssay AID504834 (National Center for Advancing Translational Sciences (NCATS), 2011)
Screen size: about 320,000 compounds; about 22,000 (6.9%) were called active. Inconclusive means that the source gave no clear call. Such entries were picked first, then a sample of the others. Calls come from the whole dose curve; as a rule, active = well fitted inhibition curve with a large enough effect; inconclusive = small, poorly fitted or top-dose-only effect, or another doubt; inactive = no such curve, though single readings can be large or run the other way. Where the call is inconclusive, the potency comes from a doubtful curve fit.

Assay: Primary qHTS for delayed death inhibitors of the malarial parasite plastid, 96 hour incubation
Conditions: P. falciparum luciferase reporter growth; series mostly up to 28.7 µM
Outline: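 P. falciparum expressing integrated firefly luciferase, in erythrocytes at 2% hematocrit, 0.05% parasitemia, incubated with compounds 96 h at 37 C, 5% CO2. Growth inhibition read as loss of luminescence; two-generation exposure targets delayed-death apicoplast inhibitors.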
Potency is the fitted concentration of half-maximal effect.

Row | SMILES | Potency
1 | Cc1cc(OC(=O)c2ccc(S(=O)(=O)N(C)C)cc2)c([N+](=O)[O-])c(=O)[nH]1 | inactive
2 | CCOC(=O)c1c(N)sc(C(=O)N(CC)CC)c1C | inactive
3 | O=C(NCc1cccc(C(F)(F)F)c1)C1CCC(=O)N(C2CCCCCC2)C1 (stereo unspecified) | inactive
4 | Fc1ccc(Cn2c(SCc3ccc(F)c(F)c3)nnc2C(F)(F)F)cc1 | inactive
5 | CCCc1cc(C(=O)Nc2nnc(C)s2)cs1 | inactive
6 | Cc1cc(C(F)(F)F)nc(CCNC(=O)C2CCC(=O)N(Cc3cccc(F)c3)C2)n1 (stereo unspecified) | inactive
7 | O=C(Cc1n[nH]c(=O)c2ccccc12)N1CCN(c2ccc(F)cc2)CC1 | inconclusive: 0.0047 µM [inhibitor, full curve, poor fit]
8 | NC(=O)CC(NC(=O)c1ccccc1)c1ccc(NC2CCCCCCC2)c([N+](=O)[O-])c1 (stereo unspecified) | inactive
9 | Fc1ccc(F)c(C2=NNC(=Nc3ccccc3F)SC2)c1 | inconclusive: 10.4 µM [inhibitor, single point]
10 | NC1=NC(=O)C(Cc2cccc(Cl)c2Cl)S1 (stereo unspecified) | inconclusive: 18.5 µM [inhibitor, single point]
11 | COc1ccccc1/C=C/C(=O)NC(=S)N1CCN(C)CC1 | inconclusive: 14.7 µM [inhibitor, single point]
12 | Cn1c(=O)c2sccc2n(Cc2cccc(Br)c2)c1=O | inconclusive: 18.5 µM [inhibitor, single point]
13 | COCCNC(=O)C(c1cccs1)N(C(=O)Cn1nnc2ccccc21)c1ccccc1 (stereo unspecified) | inconclusive: 14.7 µM [inhibitor, partial curve]
14 | COc1ccc(/C=C(\C#N)C(=O)C(C)(C)n2cncn2)cc1 | active: 3.7 µM
15 | Cc1ccc(C(=O)N2CCc3ccccc32)cc1NC(=O)c1ccco1 | inconclusive: 16.5 µM [inhibitor, single point]
16 | O=C(Cc1ccc([N+](=O)[O-])cc1)N/N=C/c1ccc([N+](=O)[O-])o1 | inconclusive: 7.38 µM [inhibitor, partial curve, poor fit]
17 | CCc1cccc(OCC(=O)Nc2ccccc2N2CCCC2)c1 | inconclusive: 9.28 µM [inhibitor, partial curve]
18 | O=C(Nc1nc(-c2ccccn2)cs1)c1ccc(Cl)s1 | active: 0.37 µM
19 | C/C(=N/NC(=O)CNC(=O)c1ccccc1)c1ccc(C)cc1 | inconclusive: 10.4 µM [inhibitor, single point]
20 | COc1ccc2nc(SCc3cnc(C)nc3N)[nH]c2c1 | inconclusive: 0.928 µM [inhibitor, partial curve, poor fit]
21 | CCOCCCn1c(=S)[nH]c2cc(C(=O)NCC(OC)OC)ccc2c1=O | inconclusive: 11.7 µM [inhibitor, single point]
22 | COCCNC(=O)CSc1nc2ccccc2c2nc(C)nn12 | inconclusive: 0.0037 µM [inhibitor, full curve, poor fit]
23 | Cc1cc(C)n2nc(-c3sccc3-n3c(C)ccc3C)cc2n1 | inconclusive: 10.4 µM [inhibitor, single point]

Row | SMILES | Potency
24 | C[C@]12C=CC(=O)C=C1CC[C@@H]1[C@@H]2[C@@H](O)C[C@@]2(C)[C@H]1CC[C@]2(O)C(=O)COC(=O)CCC(=O)NCCc1ccc(O)cc1 | inactive
25 | O=C(N/N=C/c1ccccc1)C(O)c1ccccc1 (stereo unspecified) | inconclusive: 10.4 µM [inhibitor, single point]
26 | Cc1ccc(Cl)cc1Nc1nc(N2CCOCC2)nc(N2CCOCC2)n1 | inactive
27 | CN(CC(=O)Nc1ccc(S(=O)(=O)N2CCCC2)cc1)CC(=O)Nc1cccc(F)c1 | inconclusive: 9.28 µM [inhibitor, single point]
28 | COc1ccc(Oc2nc(-c3ccccn3)ncc2OC)cc1 | inconclusive: 0.928 µM [inhibitor, full curve]
29 | C=CCNC(=O)C(=O)c1c(-c2ccccc2)[nH]c2ccccc12 | inconclusive: 11.7 µM [inhibitor, partial curve]
30 | Cc1nc2ccccc2c(=O)n1Cc1ccco1 | inactive
31 | Cc1ccccc1NC(=O)C1CCN(S(=O)(=O)c2ccc3c(c2)NC(=O)C(C)S3)CC1 (stereo unspecified) | inconclusive: 18.5 µM [inhibitor, single point]
32 | CCOC(=O)c1ccsc1NC(=O)c1ccco1 | inconclusive: 18.5 µM [inhibitor, single point]
33 | O=C(Nc1nc2ccc(C(=O)N3CCCCC3)cc2s1)C1CCCCC1 | inconclusive: 1.31 µM [inhibitor, partial curve, poor fit]
34 | COC1CCN(Cc2c(C(=O)N3CCN(C4CCCCC4)CC3)nc3ccccn23)CC1 | inactive
35 | CCCC(=O)N1CC(=O)Nc2ccc(F)cc2C1c1ccccc1 (stereo unspecified) | inconclusive: 9.28 µM [inhibitor, partial curve, poor fit]
36 | COc1cc(NC(=O)COc2ccc3c(C)cc(=O)oc3c2C)cc(OC)c1OC | inconclusive: 14.7 µM [inhibitor, partial curve]
37 | CCCC(=O)Nc1ccc(NC(=O)c2ccco2)c(OC)c1 | inconclusive: 2.08 µM [inhibitor, full curve]
38 | CC(C)(C)N1C(=O)c2ccc(C(=O)O)cc2C1=O | inconclusive: 18.5 µM [inhibitor, single point]
39 | Cc1csc2c(NCCCN3CCOCC3)ncnc12 | inactive
40 | CN(C)c1ccc(C(=O)/C=C/c2ccco2)cc1 | inactive
41 | O=C(CSc1nnc(-c2ccccc2F)n1C1CC1)Nc1cccnc1Cl | inconclusive: 4.65 µM [inhibitor, partial curve]
42 | COc1ccccc1NC(=O)c1cc(C)oc1C | inconclusive: 16.5 µM [inhibitor, single point]
43 | CCc1noc2c1/C(=N\O)CC(c1ccccc1)C2 (stereo unspecified) | inactive
44 | Cn1cccc1CNC1CCCC1 | inconclusive: 8.28 µM [inhibitor, partial curve]
45 | OCCNc1c2ccccc2nc2ccccc12 | inconclusive: 18.5 µM [inhibitor, single point]
46 | Cc1ccc(NC(=O)CCC(=O)N/N=C/c2cccs2)cc1 | inconclusive: 11.7 µM [inhibitor, partial curve, poor fit]

Among those listed so far, these have two or more sulfur atoms:
Row | SMILES | Potency
5 | CCCc1cc(C(=O)Nc2nnc(C)s2)cs1 | inactive
18 | O=C(Nc1nc(-c2ccccn2)cs1)c1ccc(Cl)s1 | active: 0.37 µM
31 | Cc1ccccc1NC(=O)C1CCN(S(=O)(=O)c2ccc3c(c2)NC(=O)C(C)S3)CC1 (stereo unspecified) | inconclusive: 18.5 µM [inhibitor, single point]
